PMC11589706, “Cryo-EM structure of PML RBCC dimer reveals CC-mediated octopus-like nuclear body assembly mechanism” (Cell Discovery, 2024)
Results are given in words; binding and its absence hold for the method and conditions named. Some results given as binding are weak or reduced against the parent protein; the word gives no strength.

Biological target: full-length PML-WT (PML isoform IV), mammalian two-hybrid fusions (human) (UniProt P29590)
Assay: two-hybrid; CheckMate mammalian two-hybrid (Promega) in HeLa Pml-/- cells; pG5-luc, pBIND-PML and pACT-PML at 1:1:1; dual-luciferase read-out 24 h after transfection; normalised to pACT vector:pBIND-PML = 1

binding: binds
Substance: full-length PML-WT (PML isoform IV), mammalian two-hybrid fusions (from UniProt P29590-5 1-633)
